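Viability assay of Plasmodium falciparum sporozoites; the read-out is not stated. The concentration is filed as 10 mM, unlikely as a test dose, so the dose is not known. Direction is inferred from retests: higher values go with lower viability. Strong results were mostly tested again. Of about 34,000 compounds tested this way, about 280 (0.84%) reached 50% or more in at least one test.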

Results are given as percent effect. How 0% and 100% were set is not recorded. Most values in the screen are low, and negative values occur. The compounds are a random part of those screened.

| # | compound | percent effect |
|---|---|---|
| 1 | `CN(C)c1cc(CNC(=O)c2cn(-c3ccc(F)cc3)nn2)ccn1` | -19.42 |
| 2 | `CO[C@@H]1CCN(Cc2ccoc2)[C@H]1Cc1ccccc1.O=C(O)C(F)(F)F` | 1.798 |
| 3 | `Cc1nc(Nc2cnccn2)cc(C2CCN(c3ncccn3)C2)n1` (stereo not given) | 4.755 |
| 4 | `[H][C@@]12C[C@@H](c3nc(C)no3)CN(Cc3ccoc3)[C@]1([H])CCO2` | 0.5051 |
| 5 | `O=C(NCCNc1ncccn1)C1CCCC1` | 4.518 |
| 6 | `Cc1ccc(CNC2CCN(CCc3ccncc3)CC2)cc1C` | -12.18 |
| 7 | `NC(=O)NCC1CCCCN1C(=O)c1ccc(Cl)s1` (stereo not given) | -1.741 |
| 8 | `O=C(CC1CCCC1)N1CCC(c2noc(-c3ccccn3)n2)CC1` | 6.016 |
| 9 | `COCC(=O)N[C@H](C(=O)NC(C)c1cccc(C)c1C)C(C)C` (stereo not given in full) | -22.37 |
| 10 | `COC(=O)N1CCCC(C(=O)N2CCCCC2)C1` (stereo not given) | 6.311 |
| 11 | `Cn1cc(CN2CCC(F)(F)C3(CCN(c4ncccn4)C3)C2)cn1.O=C(O)C(F)(F)F.O=C(O)C(F)(F)F` (stereo not given) | 9.4 |
| 12 | `Cc1cccc(CN2CCC3(CCCN(Cc4cnn(C)c4)C3)C2=O)n1` (stereo not given) | 12.14 |
| 13 | `O=C1NCCN1C1CCN(Cc2nc(-c3ccc(F)cc3)no2)CC1` | 2.407 |
| 14 | `Cc1csc(CNc2ccc(-c3nc(C4CC4)no3)cn2)n1` | -19.54 |
| 15 | `Cc1sc2nc(C(F)(F)F)nc(N3CCN(C)CC3)c2c1C` | 1.421 |
| 16 | `Cc1cnc(CN(C)C2CCN(CCn3cc(C#N)cn3)C2)o1` (stereo not given) | 0 |
| 17 | `N[C@H]1CN(C(=O)CCCc2ccc(F)cc2)C[C@@H]1C1CC1` | -8.769 |
| 18 | `[H][C@@]12CS(=O)(=O)C[C@]1([H])N(Cc1ccc(CC)cc1)CCN2C(=O)C(C)C` | 3.79 |
| 19 | `Cc1oc(C)c(C(=O)N2CCN(Cc3cscn3)CC2)c1C` | 5.816 |
| 20 | `CNC(=O)C(C)(C)NC(=O)c1cc(OCC2CCC2)cc(C(=O)OC)c1` | 2.007 |
| 21 | `Cc1cccn2cc(C[S+]([O-])Cc3noc(C(C)C)n3)nc12` (stereo not given) | 2.477 |
| 22 | `CCC(=O)N1CCC2(CC1)CC(NC(=O)N(C)C)c1cc(C)ccc12` (stereo not given) | 14.84 |
| 23 | `COc1cccc(-n2nnc(C(=O)N3CCCC(C)C3)c2C)c1` (stereo not given) | 9.997 |
| 24 | `Cn1nc2c(cc1=O)CN(Cc1coc(-c3ccc(F)cc3)n1)CC2` | 10.69 |
| 25 | `COc1cc(C2Nc3cc(Cl)ccc3C3=NCCN32)cc(OC)c1OC` (stereo not given) | -0.03575 |
| 26 | `Cc1nn(C)c(N(C)C)c1CNC(C)COc1cccc(F)c1` (stereo not given) | -17.42 |
| 27 | `CC(O)CN(C)c1cc(C(F)(F)F)nc(-c2cccnc2)n1` (stereo not given) | -3.676 |
| 28 | `O=C(O)C(F)(F)F.[H][C@@]12CCCO[C@]1([H])[C@@H](Oc1ccccn1)CN2C(=O)c1ccnnc1` | 7.762 |
| 29 | `O=C(O)C(F)(F)F.[H][C@]12C[C@@H](C(=O)NCc3cccs3)CO[C@@]1([H])CCN(CCOC)C2` | 0.6857 |
| 30 | `CNc1cc(C2CN(Cc3csc(C)n3)CCO2)nc(C)n1` (stereo not given) | 2.586 |
| 31 | `CC(O)CN1CCN(C(=O)c2ccn(-c3cccc(Cl)c3)n2)CC1` (stereo not given) | -13.41 |
| 32 | `CC(C)(C)c1nc(CN2CCCC(c3noc(C4CC4)n3)C2)no1` (stereo not given) | 0 |
| 33 | `CO[C@@H]1CCC[C@@H](NC(=O)c2cccc(F)c2)[C@H]1O` | -0.385 |
| 34 | `O=C1CCC(=O)N1c1nn(Cc2ccccc2Cl)cc1Cl` | -1.818 |
| 35 | `COCC(=O)N1CCCCC1c1ccncn1` (stereo not given) | 5.399 |
| 36 | `CC(O)CN1CCN(C(=O)c2cccc(CC#N)c2)CC1` (stereo not given) | 2.78 |
| 37 | `CN(C)C(=O)NC1COC2(CCN(C(=O)c3ccc(Cl)cc3)CC2)C1` (stereo not given) | 9.923 |
| 38 | `CCC(NC(=O)CC1CCN(CC)CC1)c1cn2cccnc2n1` (stereo not given) | -7.895 |
| 39 | `Cc1noc(-c2ccc(N3CCCC(C(=O)N4CCSCC4)C3)nc2)n1` (stereo not given) | -4.368 |
| 40 | `CC(C)C(NC(=O)c1ccccc1F)C(=O)Nc1cnn(C)c1` (stereo not given) | -21.69 |
| 41 | `O=C(NCC1CCOC1)c1csc(-c2ccco2)n1` (stereo not given) | 2.126 |
| 42 | `c1cc(-c2n[nH]cc2-c2ccnc(N3CCCCCC3)n2)ccn1` | 8.891 |
| 43 | `CCc1nc(CN(C)C2CCN(CC(=O)N(C)C)C2)no1` (stereo not given) | -0.7721 |
| 44 | `COc1ccc(OC)c(-n2cnnc2C)c1` | -3.432 |
| 45 | `Cn1cc(CN2CCOC(c3cccc(-c4cccc(F)c4)n3)C2)cn1` (stereo not given) | -0.2498 |
| 46 | `CCN1CCC2(CC1)CC(Nc1ncccn1)CO2` (stereo not given) | -18.26 |
| 47 | `COc1cc(C(=O)N(CCC#N)Cc2ccccn2)cc(OC)c1C` | -0.2146 |
| 48 | `CCOc1ncccc1C(=O)N1CCCC(n2nc(C)nc2C)C1` (stereo not given) | 6.689 |
| 49 | `CC(=O)c1ccccc1C(=O)NCC1(CO)CC1` | -0.5882 |
| 50 | `CC1c2ncc(CN3CCN(C)CC3)n2CCN1Cc1ccsc1.O=C(O)C(F)(F)F.O=C(O)C(F)(F)F.O=C(O)C(F)(F)F` (stereo not given) | 4.825 |
| 51 | `CCOc1ccc(Cl)c(C(=O)N2CCN(C(=O)c3ccoc3C)CC2)n1` | 1.635 |

Once more, the final 6:

{"compound": "CCN1CCC2(CC1)CC(Nc1ncccn1)CO2", "stereo": "stereo not given", "percent effect": -18.26}
{"compound": "COc1cc(C(=O)N(CCC#N)Cc2ccccn2)cc(OC)c1C", "percent effect": -0.2146}
{"compound": "CCOc1ncccc1C(=O)N1CCCC(n2nc(C)nc2C)C1", "stereo": "stereo not given", "percent effect": 6.689}
{"compound": "CC(=O)c1ccccc1C(=O)NCC1(CO)CC1", "percent effect": -0.5882}
{"compound": "CC1c2ncc(CN3CCN(C)CC3)n2CCN1Cc1ccsc1.O=C(O)C(F)(F)F.O=C(O)C(F)(F)F.O=C(O)C(F)(F)F", "stereo": "stereo not given", "percent effect": 4.825}
{"compound": "CCOc1ccc(Cl)c(C(=O)N2CCN(C(=O)c3ccoc3C)CC2)n1", "percent effect": 1.635}

Source: ChEMBL document CHEMBL3988442, “University of Dundee, Small-Polar-MMV Screening Library” (2021).